In PubChem BioAssay AID2685 (National Center for Advancing Translational Sciences (NCATS), 2010):
Some of the results follow. The main result of the screen is listed elsewhere. These columns were measured beside it and carry no call. The list favours compounds with an active or inconclusive main result. Words in brackets tell the shape of the fitted curve; partial curves, single points and poor fits give uncertain potencies.

Test: qHTS Assay for Lipid Storage Modulators in Drosophila S3 Cells;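 for cell number change: cells counted by Cell Tracker Red CMTPX staining in the red channel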
Conditions: BODIPY lipid droplet fluorescence, 18-24 h; for cell number change: measured here: cell count max response, cells fed with added oleic acid
Summary of the method: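 Laser-scanning cytometry quantifies lipid droplet accumulation (500–530 nm total intensity; droplet/cell object ratio) in oleic acid-fed (400 uM added) Drosophila S3 cells treated with a concentration series. 20 uM Triacsin C defined 100% inhibition.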

[1] = measured here: cell number channel AC50, cells fed with added oleic acid
[2] = measured here: lipid fluorescence (Fed channel) AC50, cells fed with added oleic acid

| Compound | cell number change | AC50 [1] | AC50 [2] |
| --- | --- | --- | --- |
| CCC(=NCc1cccnc1)c1c(O)n(C2CCCCC2)c(=O)[nH]c1=O | -11.7% |  |  |
| O=C(Nc1ccccc1Cl)OC1CN2CCC1CC2 (stereo not drawn) | 7.12% | 0.411 µM [falling, single point] | 0.651 µM [falling, single point] |
| C[N+]12CCC(CC1)C(C#N)(N1CCOCC1)C2 (stereo not drawn) |  |  | 4.11 µM [falling, single point] |
| Cc1nn(Cc2ccccc2)c(Cl)c1C(=O)OCC(=O)NCC1CCCO1 (stereo not drawn) | -1.04% |  | 0.0184 µM [rising, full curve] |
| CN1CCN(Cc2ccccc2C(F)(F)F)CC1 | -12.3% |  | 0.651 µM [rising, full curve, poor fit] |
| O=C1/C(=C/c2ccc([N+](=O)[O-])cc2)N2CCC1CC2 | -9.87% |  | 7.31 µM [falling, partial curve, poor fit] |
| CC(=NC(C)c1ccccc1)c1c(O)[nH]c(=O)[nH]c1=O (stereo not drawn) | 12.4% |  | 0.00461 µM [falling, full curve, poor fit] |
| CC(C(=O)c1c[nH]c2ccccc12)N1CCOCC1 (stereo not drawn) | -23.8% |  | 8.2 µM [falling, partial curve] |
| C=CCn1c(O)c(C(C)=NC2CC2)c(=O)[nH]c1=O | -18.1% | 0.0058 µM [falling, full curve, poor fit] | 2.59 µM [falling, full curve] |
| CCCNC(=O)N1[C@H]2CC[C@@H]1C(C(=O)OC)=C(c1cccc(C#N)c1)C2 | 4.48% |  | 1.64 µM [rising, full curve, poor fit] |
| CCOC(=O)[C@]1(C#N)[C@@H]2C=CC(C(C)=O)=CN2[C@@H](C(N)=O)[C@@H]1c1ccsc1 |  |  | 0.58 µM [falling, single point] |
| NC(=O)CN1C2CCC1CC(NC(=O)C1CC1)C2 (stereo not drawn) | -101% | 5.17 µM [falling, full curve] | 29.1 µM [falling, partial curve] |
| O=C(Nc1cccnc1)c1c(O)c2c(n(Cc3ccccc3)c1=O)CCCC2 | -0.108% |  |  |
| C=CC[C@@H](C)CC(=O)C(CCCN=[N+]=[N-])SOOc1ccccc1 (stereo partly drawn) | 3.63% |  | 3.26 µM [rising, single point] |
| CN1C(=O)N(C)C(=O)C2(Cc3cc(NC(=O)c4ccccc4)ccc3N3CCCC32)C1=O (stereo not drawn) | 14.1% |  | 10.3 µM [rising, partial curve] |
| CCc1nccc2c1[nH]c1ccccc12 |  |  | 25.9 µM [rising, single point] |
| O=C(CCn1c(=O)oc2ccccc21)Nc1cccc(Br)c1 |  | 1.16 µM [rising, full curve, poor fit] |  |
| Cc1ccc(-n2c(O)c(C=NCCN3CCOCC3)c(=O)[nH]c2=O)cc1 | -6.28% | 0.00517 µM [falling, full curve, poor fit] | 1.84 µM [falling, partial curve] |
| O=[N+]([O-])c1ccc(Cl)c([N+](=O)[O-])c1 | 0.116% |  | 29.1 µM [falling, single point] |
| Cc1ccn2nc(S(=O)(=O)Nc3c(F)cccc3F)nc2n1 | -1.25% |  |  |

| Compound | cell number change | AC50 [1] | AC50 [2] |
| --- | --- | --- | --- |
| c1ccc2c(c1)CNc1ccccc1O2 | -12% |  | 1.3 µM [rising, partial curve] |
| COC(=O)C1=C(c2ccc3ccccc3c2)C[C@@H]2CC[C@H]1N2C(=O)NCc1ccc(F)cc1 | -50.8% | 13 µM [falling, partial curve] | 8.2 µM [falling, partial curve] |
| Cc1ccc(/C=C2/C(=O)NC(=O)N(CCc3ccc(F)cc3)C2=O)s1 | -39.1% | 0.366 µM [falling, full curve] |  |
| Cc1ccccc1-n1c(O)c(C=Nc2ccc(N(C)C)cc2)c(=O)[nH]c1=O | 66.7% | 3.66 µM [rising, full curve] | 29.1 µM [rising, single point] |
| CC(=O)c1cccc(OCC(O)CN2CC=C(c3ccccc3)CC2)c1 (stereo not drawn) | -19.8% |  | 1.16 µM [falling, full curve, poor fit] |
| COc1ccc(C2N(c3cc(C)on3)C(=O)C3CCCN32)cc1 (stereo not drawn) | 3.93% |  |  |
| Cn1c(O)c(C=Nc2ccc(Br)cc2)c(=O)n(C)c1=O |  | 0.00461 µM [falling, full curve, poor fit] |  |
| O=C(Nc1ccccc1)c1cccn(Cc2ccccc2)c1=O |  | 0.82 µM [rising, full curve] | 0.651 µM [rising, partial curve, poor fit] |
| NC1CCCCC1N=Cc1c(O)n(Cc2ccc(F)cc2)c(=O)[nH]c1=O (stereo not drawn) |  |  | 16.4 µM [falling, single point] |
| CCN(CC)P(=O)(Oc1cccc(C)c1)N(CC)CC | -12.7% | 0.517 µM [falling, partial curve] | 18.4 µM [falling, partial curve] |
| COCCOC(=O)C1=C(N)Oc2c(c(=O)oc3ccccc23)C1c1ccncc1 (stereo not drawn) |  |  | 6.51 µM [rising, partial curve] |
| CCc1ccc(CN2CCN(Cc3cc(Br)ccc3O)CC2)cc1 | -36.2% | 29.1 µM [falling, single point] | 29.1 µM [falling, single point] |
| CN1CCN(Cc2ccc(N)cc2)CC1 | -6.8% |  |  |
| N#CC12CNCC1CN=N2 (stereo not drawn) | -0.802% |  |  |
| CCCCn1c(=O)c(C(=O)NCc2ccccc2Cl)c(O)c2ccccc21 | 9.49% |  |  |
| O=C(Cc1c(Cl)cccc1Cl)N1CCN(Cc2ccccc2)CC1 | 41% | 2.91 µM [rising, partial curve, poor fit] | 29.1 µM [rising, single point] |
| NC(=O)c1c(NC(=O)c2ccc(S(=O)(=O)N(CCCl)CCCl)cc2)sc2c1CCCCC2 | -0.314% |  | 2.31 µM [rising, single point] |
| O=c1c(C=NCc2cccs2)c(O)n(C2CCCCC2)c(=O)n1C1CCCCC1 | 11.4% |  |  |
| C=C(Cl)CSC(=S)N(CC)CC | -41.8% | 1.03 µM [rising, single point] | 1.16 µM [rising, single point] |

Grouped by structure: those above with a Cl atom

| Compound | cell number change | AC50 [1] | AC50 [2] |
| --- | --- | --- | --- |
| O=C(Nc1ccccc1Cl)OC1CN2CCC1CC2 (stereo not drawn) | 7.12% | 0.411 µM [falling, single point] | 0.651 µM [falling, single point] |
| Cc1nn(Cc2ccccc2)c(Cl)c1C(=O)OCC(=O)NCC1CCCO1 (stereo not drawn) | -1.04% |  | 0.0184 µM [rising, full curve] |
| O=[N+]([O-])c1ccc(Cl)c([N+](=O)[O-])c1 | 0.116% |  | 29.1 µM [falling, single point] |
| CCCCn1c(=O)c(C(=O)NCc2ccccc2Cl)c(O)c2ccccc21 | 9.49% |  |  |
| O=C(Cc1c(Cl)cccc1Cl)N1CCN(Cc2ccccc2)CC1 | 41% | 2.91 µM [rising, partial curve, poor fit] | 29.1 µM [rising, single point] |
| NC(=O)c1c(NC(=O)c2ccc(S(=O)(=O)N(CCCl)CCCl)cc2)sc2c1CCCCC2 | -0.314% |  | 2.31 µM [rising, single point] |
| C=C(Cl)CSC(=S)N(CC)CC | -41.8% | 1.03 µM [rising, single point] | 1.16 µM [rising, single point] |
